# US20220348569A1 (priority 2021, published 2022)
# Assay: in vitro
# Details: human, Caco-2, pH 7.4
smiles,measurement,value
CC(C)NCC(O)COc1ccc(CC(N)=O)cc1 (stereo not shown) [Atenolol],Papp,0.193 ×10⁻⁶ cm/s
